This passage reports binding results from PMC10178565.

Protein sequences, listed by entry. Tags and fused reporters are not part of them. Lines headed by an entry give the natural chain unless they say otherwise; changes in a name come on top.
UniProt P43406: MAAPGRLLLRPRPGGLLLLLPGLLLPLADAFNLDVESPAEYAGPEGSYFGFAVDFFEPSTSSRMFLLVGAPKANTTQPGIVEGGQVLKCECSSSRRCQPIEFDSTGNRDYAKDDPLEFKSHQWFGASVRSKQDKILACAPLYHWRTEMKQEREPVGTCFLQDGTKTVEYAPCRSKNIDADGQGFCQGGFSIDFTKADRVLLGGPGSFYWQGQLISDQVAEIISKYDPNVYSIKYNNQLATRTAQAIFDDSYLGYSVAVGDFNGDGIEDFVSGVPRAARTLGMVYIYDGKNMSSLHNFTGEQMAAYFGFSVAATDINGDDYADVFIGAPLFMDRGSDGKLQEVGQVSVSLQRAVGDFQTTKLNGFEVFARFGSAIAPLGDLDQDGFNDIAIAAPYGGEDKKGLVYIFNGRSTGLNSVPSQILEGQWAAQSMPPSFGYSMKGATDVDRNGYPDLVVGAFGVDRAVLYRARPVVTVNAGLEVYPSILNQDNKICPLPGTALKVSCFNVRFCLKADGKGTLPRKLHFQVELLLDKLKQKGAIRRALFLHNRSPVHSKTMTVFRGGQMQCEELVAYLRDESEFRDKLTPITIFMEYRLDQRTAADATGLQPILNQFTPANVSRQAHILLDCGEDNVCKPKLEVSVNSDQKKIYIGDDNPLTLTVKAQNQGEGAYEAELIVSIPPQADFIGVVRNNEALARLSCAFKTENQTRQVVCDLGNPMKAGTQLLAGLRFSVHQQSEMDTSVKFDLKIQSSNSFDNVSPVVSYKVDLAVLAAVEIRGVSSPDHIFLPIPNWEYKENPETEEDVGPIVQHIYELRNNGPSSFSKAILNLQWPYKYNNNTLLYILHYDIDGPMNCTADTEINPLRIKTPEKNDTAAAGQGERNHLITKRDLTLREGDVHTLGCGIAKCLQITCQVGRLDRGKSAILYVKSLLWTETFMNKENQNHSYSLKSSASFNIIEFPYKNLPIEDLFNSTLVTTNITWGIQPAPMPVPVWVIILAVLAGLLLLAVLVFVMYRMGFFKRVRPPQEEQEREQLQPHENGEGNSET
UniProt O70309: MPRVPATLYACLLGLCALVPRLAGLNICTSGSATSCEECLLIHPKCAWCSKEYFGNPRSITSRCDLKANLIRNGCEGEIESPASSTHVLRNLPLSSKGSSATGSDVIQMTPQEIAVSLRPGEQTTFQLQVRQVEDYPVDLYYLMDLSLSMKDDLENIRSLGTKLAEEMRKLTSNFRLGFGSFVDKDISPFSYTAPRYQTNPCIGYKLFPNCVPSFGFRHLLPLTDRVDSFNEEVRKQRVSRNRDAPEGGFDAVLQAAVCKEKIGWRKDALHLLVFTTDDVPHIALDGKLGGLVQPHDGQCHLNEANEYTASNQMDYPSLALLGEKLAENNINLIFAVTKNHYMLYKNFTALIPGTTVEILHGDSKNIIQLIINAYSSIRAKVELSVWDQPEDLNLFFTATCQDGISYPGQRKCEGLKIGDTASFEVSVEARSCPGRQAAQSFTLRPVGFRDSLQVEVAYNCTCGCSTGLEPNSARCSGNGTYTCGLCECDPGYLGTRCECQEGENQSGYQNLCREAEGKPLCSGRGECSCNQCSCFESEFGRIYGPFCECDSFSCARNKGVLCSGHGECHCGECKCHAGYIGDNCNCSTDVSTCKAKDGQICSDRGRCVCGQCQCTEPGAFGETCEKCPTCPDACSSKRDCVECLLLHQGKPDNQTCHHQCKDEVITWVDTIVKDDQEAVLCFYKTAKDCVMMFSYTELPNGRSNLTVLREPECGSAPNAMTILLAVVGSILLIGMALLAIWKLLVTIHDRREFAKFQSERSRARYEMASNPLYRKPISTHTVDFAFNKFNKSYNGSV

Results are given in words; binding and its absence hold for the method and conditions named. In cells and extracts the contact can be indirect. Some binding calls cover weakened binding; strength is not graded here.

The assay concerns the target integrin αVβ5 (mouse (endogenous in hippocampus)) (UniProt P43406+O70309). Put plainly: co-IP; lysate incubated with Protein A/G agarose and mouse anti-integrin alpha V/beta 5 antibody (sc-81632) overnight at 4 °C, then immunoblotted; hippocampus of MPTP (M), MPTP+exercise (ME) and ME+FNDC5 mice. (Immunoblotting shows a protein as a band on a membrane.)

B1: Thy1/CD90 (protein, UniProt P01831 20-131)
chain: QKVTSLTACLVNQNLRLDCRHENNTKDNSIQHEFSLTREKRKHVLSGTLGIPEHTYRSRVTLSNQPYIKVLTLANFTTKDEGDYFCELQVSGANPMSSNKSISVYRDKLVKC
As for B1, the binding result was “binds”.
